The IC50 is the concentration that inhibits the measured activity by half.

SMILES strings stand for the structures.

Experimental findings from patent US8404677B2, “Kinase inhibitors” (Genosco, priority 2009, dated 2013) are described below.

The assay deals with MV4-11 cells expressing human FLT3-ITD. As to the kind of experiment: Cell viability assay: FLT3-ITD-positive cells. The note with it: 72-hour incubation, read-out: MV-4-11 cell viability IC50. Type of assay: cell-based. As for the experimental part:
Compounds of the invention were tested for cell viability effect on MV4-11 cells. For cell viability assay, MV4-11 cells expressing human FLT3-ITD were obtained from the American Type Culture Collection (ATCC, Manassas, Va.). This cell line was maintained with an Roswell Park Memorial Institute (RPMI) medium (HyClone™) containing 10 bovine calf serum (BCS; Hyclone™) supplemented iron. […] CellTiter Aqueous assay (Promega™) was also performed in parallel as an orthogonal assay. IC50 values were calculated using nonlinear regression and defined as the concentration needed for a 50 reduction in luminescence or absorbance treated versus untreated control cells (Prism™ Software).

With `CO[C@@H]1[C@H](N(C)C(=O)c2ccccc2)C[C@H]2O[C@]1(C)n1c3ccccc3c3c4c(c5c6ccccc6n2c5c31)C(=O)NC4` [PKC-412, reference compound], the IC50 amounted to 11.7 nM.
